# Measurements taken from paper PMC6494879, “Drug resistance emergence in macaques administered cabotegravir long-acting for pre-exposure prophylaxis during acute SHIV infection” (Nature Communications, 2019).
# The source gives many values for each of these; only a part stands here.
# Test system: RT-SHIV
# Assay: Plasma SHIV RNA (RT-PCR) in RT-SHIV-infected macaques treated with CAB LA
structure (smiles),measurement,setting,value
"C[C@H]1CO[C@@H]2Cn3cc(C(=O)NCc4ccc(F)cc4F)c(=O)c(O)c3C(=O)N12 [CAB, cabotegravir]",SHIV RNA copies/ml,"macaque 33996, day 204",564 copies/ml
same,SHIV RNA copies/ml,"macaque 35451, day 0",49 copies/ml
same,SHIV RNA copies/ml,"macaque 35451, day 2",19312 copies/ml
same,SHIV RNA copies/ml,"macaque 35451, day 4",183825 copies/ml
same,SHIV RNA copies/ml,"macaque 35451, day 7",932430 copies/ml
same,SHIV RNA copies/ml,"macaque 35451, day 9",6901147 copies/ml
same,SHIV RNA copies/ml,"macaque 35451, day 11",5098254 copies/ml
same,SHIV RNA copies/ml,"macaque 35451, day 71",49 copies/ml
same,SHIV RNA copies/ml,"macaque 35451, day 74",49 copies/ml
same,SHIV RNA copies/ml,"macaque 35451, day 78",104 copies/ml
same,SHIV RNA copies/ml,"macaque 35451, day 81",42 copies/ml
same,SHIV RNA copies/ml,"macaque 35451, day 85",49 copies/ml
same,SHIV RNA copies/ml,"macaque 35451, day 88",49 copies/ml
same,SHIV RNA copies/ml,"macaque 35451, day 92",49 copies/ml
same,SHIV RNA copies/ml,"macaque 35451, day 95",49 copies/ml
same,SHIV RNA copies/ml,"macaque 35451, day 102",44 copies/ml
same,SHIV RNA copies/ml,"macaque 35451, day 106",49 copies/ml
same,SHIV RNA copies/ml,"macaque 35451, day 115",49 copies/ml
same,SHIV RNA copies/ml,"macaque 35451, day 120",538 copies/ml
same,SHIV RNA copies/ml,"macaque 35451, day 134",1833 copies/ml
same,SHIV RNA copies/ml,"macaque 35451, day 143",49 copies/ml
same,SHIV RNA copies/ml,"macaque 35451, day 148",49 copies/ml
same,SHIV RNA copies/ml,"macaque 35451, day 155",49 copies/ml
same,SHIV RNA copies/ml,"macaque 35451, day 162",158 copies/ml
same,SHIV RNA copies/ml,"macaque 35451, day 170",214 copies/ml
same,SHIV RNA copies/ml,"macaque 35451, day 176",49 copies/ml
same,SHIV RNA copies/ml,"macaque 35451, day 183",142 copies/ml
same,SHIV RNA copies/ml,"macaque 35451, day 190",209 copies/ml
same,SHIV RNA copies/ml,"macaque 35451, day 197",49 copies/ml
same,SHIV RNA copies/ml,"macaque 35451, day 204",49 copies/ml
same,SHIV RNA copies/ml,"macaque CH54, day 0",49 copies/ml
same,SHIV RNA copies/ml,"macaque CH54, day 2",45495 copies/ml
same,SHIV RNA copies/ml,"macaque CH54, day 4",209981 copies/ml
same,SHIV RNA copies/ml,"macaque CH54, day 7",417410 copies/ml
same,SHIV RNA copies/ml,"macaque CH54, day 9",6988208 copies/ml
same,SHIV RNA copies/ml,"macaque CH54, day 11",4265928 copies/ml
same,SHIV RNA copies/ml,"macaque CH54, day 71",1282 copies/ml
same,SHIV RNA copies/ml,"macaque CH54, day 74",473 copies/ml
same,SHIV RNA copies/ml,"macaque CH54, day 78",502 copies/ml
same,SHIV RNA copies/ml,"macaque CH54, day 81",696 copies/ml
same,SHIV RNA copies/ml,"macaque CH54, day 85",596 copies/ml
same,SHIV RNA copies/ml,"macaque CH54, day 88",1057 copies/ml
same,SHIV RNA copies/ml,"macaque CH54, day 92",4226 copies/ml
same,SHIV RNA copies/ml,"macaque CH54, day 95",3496 copies/ml
same,SHIV RNA copies/ml,"macaque CH54, day 102",4845 copies/ml
same,SHIV RNA copies/ml,"macaque CH54, day 106",6130 copies/ml
same,SHIV RNA copies/ml,"macaque CH54, day 115",11911 copies/ml
same,SHIV RNA copies/ml,"macaque CH54, day 120",31403 copies/ml
same,SHIV RNA copies/ml,"macaque CH54, day 134",191398 copies/ml
same,SHIV RNA copies/ml,"macaque CH54, day 143",237292 copies/ml
same,SHIV RNA copies/ml,"macaque CH54, day 148",248416 copies/ml
same,SHIV RNA copies/ml,"macaque CH54, day 155",193010 copies/ml
same,SHIV RNA copies/ml,"macaque CH54, day 162",381752 copies/ml
same,SHIV RNA copies/ml,"macaque CH54, day 170",723681 copies/ml
same,SHIV RNA copies/ml,"macaque CH54, day 176",865804 copies/ml
same,SHIV RNA copies/ml,"macaque CH54, day 183",675825 copies/ml
same,SHIV RNA copies/ml,"macaque CH54, day 190",628830 copies/ml
same,SHIV RNA copies/ml,"macaque CH54, day 197",268555 copies/ml
same,SHIV RNA copies/ml,"macaque CH54, day 204",486811 copies/ml
same,SHIV RNA copies/ml,"macaque CJ92, day 0",49 copies/ml
same,SHIV RNA copies/ml,"macaque CJ92, day 2",2447 copies/ml
same,SHIV RNA copies/ml,"macaque CJ92, day 4",125508 copies/ml
same,SHIV RNA copies/ml,"macaque CJ92, day 7",154624 copies/ml
same,SHIV RNA copies/ml,"macaque CJ92, day 9",3967166 copies/ml
same,SHIV RNA copies/ml,"macaque CJ92, day 11",4311448 copies/ml
same,SHIV RNA copies/ml,"macaque CJ92, day 71",56 copies/ml
same,SHIV RNA copies/ml,"macaque CJ92, day 74",49 copies/ml
same,SHIV RNA copies/ml,"macaque CJ92, day 78",49 copies/ml
same,SHIV RNA copies/ml,"macaque CJ92, day 81",49 copies/ml
same,SHIV RNA copies/ml,"macaque CJ92, day 85",49 copies/ml
same,SHIV RNA copies/ml,"macaque CJ92, day 88",43 copies/ml
same,SHIV RNA copies/ml,"macaque CJ92, day 92",49 copies/ml
same,SHIV RNA copies/ml,"macaque CJ92, day 95",142 copies/ml
same,SHIV RNA copies/ml,"macaque CJ92, day 102",49 copies/ml
same,SHIV RNA copies/ml,"macaque CJ92, day 106",49 copies/ml
same,SHIV RNA copies/ml,"macaque CJ92, day 115",49 copies/ml
same,SHIV RNA copies/ml,"macaque CJ92, day 120",49 copies/ml
same,SHIV RNA copies/ml,"macaque CJ92, day 134",282 copies/ml
same,SHIV RNA copies/ml,"macaque CJ92, day 143",2021 copies/ml
same,SHIV RNA copies/ml,"macaque CJ92, day 148",94 copies/ml
same,SHIV RNA copies/ml,"macaque CJ92, day 155",49 copies/ml
same,SHIV RNA copies/ml,"macaque CJ92, day 162",49 copies/ml
same,SHIV RNA copies/ml,"macaque CJ92, day 170",49 copies/ml
same,SHIV RNA copies/ml,"macaque CJ92, day 176",209 copies/ml
same,SHIV RNA copies/ml,"macaque CJ92, day 183",49 copies/ml
same,SHIV RNA copies/ml,"macaque CJ92, day 190",49 copies/ml
same,SHIV RNA copies/ml,"macaque CJ92, day 197",113 copies/ml
same,SHIV RNA copies/ml,"macaque CJ92, day 204",49 copies/ml
